Measurements taken from US20090264354A1 (UNIVERSITY OF UTAH RESEARCH FOUNDATION, published 2009).
Results are given in words; binding and its absence hold for the method and conditions named. Binding seen in cells or lysates may run through a third protein. Some results given as binding are weak or reduced against the parent protein; the word gives no strength. Where a sequence is shown, tags or fusion partners need not be part of it.

Target: T1, Penumbra-EGFP fusion protein (murine Penumbra with C-terminal enhanced green fluorescent protein, expressed from pEGFP N1/Pen) (mouse) (UniProt Q8R3S2)
T1 sequence: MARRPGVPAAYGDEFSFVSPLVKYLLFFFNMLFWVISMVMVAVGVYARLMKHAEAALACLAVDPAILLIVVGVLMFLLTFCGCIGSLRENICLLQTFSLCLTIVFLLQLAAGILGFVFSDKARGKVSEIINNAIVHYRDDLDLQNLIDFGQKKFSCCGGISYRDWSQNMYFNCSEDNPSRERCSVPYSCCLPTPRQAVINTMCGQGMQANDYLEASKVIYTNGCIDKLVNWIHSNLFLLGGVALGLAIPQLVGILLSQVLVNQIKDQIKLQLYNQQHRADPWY
Test: anti-Myc co-immunoprecipitation from co-transfected NIH3T3 lysates, non-reducing Western blot probed with anti-Myc and anti-EGFP; 89-kD dimer

binding: binds
B1: Penumbra-Myc fusion protein (murine Penumbra with C-terminal 11-aa Myc and 6-aa His tags, expressed from pcDNA3.1/Pen-Myc) (other)
chain: T1 sequence
notes: Seen as a 29-kD monomer on reducing gels; also called Pen-Myc fusion protein; Pen-Myc protein; not shown: 11-aa Myc tag from the pcDNA3.1 vector; 6-aa His tag from the pcDNA3.1 vector
